Data from PubChem BioAssay AID1794845 (National Center for Advancing Translational Sciences (NCATS), 2023).
Fewer than 10 of roughly 6,900 compounds were called active. The call rests on the fitted dose curve; in most records, active means well fitted curve in the direction sought with a large enough effect; inconclusive means small, poorly fitted or top-dose-only effect, or another doubt; inactive means no such curve, though single readings can be large or run the other way. The list shows a part of the results.

By UniProt entry, the sequences of proteins in these tests, tags left out. Where a name states a change or a piece, a line headed by the entry shows the natural chain unless it says otherwise.
UniProt C7C422: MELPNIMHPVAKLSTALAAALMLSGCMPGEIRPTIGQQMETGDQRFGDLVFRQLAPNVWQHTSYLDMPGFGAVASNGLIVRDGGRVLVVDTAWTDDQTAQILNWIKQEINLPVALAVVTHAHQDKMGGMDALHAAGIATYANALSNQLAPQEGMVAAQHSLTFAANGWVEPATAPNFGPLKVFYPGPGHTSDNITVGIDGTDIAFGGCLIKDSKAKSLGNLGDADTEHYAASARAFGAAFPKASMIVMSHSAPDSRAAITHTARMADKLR

What follows are molecules tested against Metallo-beta-lactamase type 2 (Klebsiella pneumoniae) (UniProt C7C422) (assay: qHTS to identify inhibitors of the New Delhi Metallo-beta-lactamase (NDM): primary screen against the NCATS Gemini Collection). Conditions: NDM-1 enzyme, meropenem hydrolysis, absorbance 300 nm; at 38.4 µM (top of the series) unless noted.
Method in brief: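 Meropenem hydrolysis (50 uM final) by 2 nM NDM-1 read as 300 nm absorbance after 30 min, following >30 min compound–enzyme preincubation in HEPES pH 7.0 with 1 uM ZnSO4 and 0.01% Tween20.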
Further: % of control where 0% means no effect.

Row | SMILES | activity % (negative = inhibition)
1 | COC[C@]1(O)CCN(C(=O)CSCc2ccccc2C)CC1(C)C | inactive: 0.871%
2 | NC(=O)CCN1CCc2onc(-c3ccccc3F)c2C1 | inactive: 3.18%
3 | CN1C(=O)COC[C@@H]1[C@H](O)c1ccc(NS(=O)(=O)c2ccc(F)cc2)cc1 | inactive: 59.2% [at 57.5 µM]
4 | O=C(NCCCN1CCc2ccccc2C1)C1CCc2ncc(-c3ccc(F)cc3)n2C1 (stereo not drawn) | inactive: 7.07%
5 | CC(C)c1ccc(CN2CCC(CNS(=O)(=O)C3CC3)C2)cc1 (stereo not drawn) | inactive: 17.7%
6 | CCc1nc2c(c(-c3ccc(Cl)cc3)n1)CN([S+](C)(=O)[O-])CC2 | inactive: 9.37% [at 57.5 µM]
7 | Cc1cccc(C(=O)N2CCC(N3CC4CC(C3)[C@H]3CCCC(=O)N3C4)CC2)c1 (stereo partly drawn) | inactive: 3.71%
8 | Cn1cc([C@@H](NC(=O)CCc2ccc(=O)[nH]n2)C2CC(O)C2)cn1 (stereo partly drawn) | inactive: 4.28%
9 | CN(Cc1cnccn1)C(=O)C1CCCN(C2CCN(C(=O)C3CC3)CC2)C1 (stereo not drawn) | inactive: -16.5%
10 | Cc1nc(C(=O)N2CCn3nc(Cc4ccccc4)cc3C2)cs1 | inactive: 17.3%
11 | O=C1Cc2c(-c3cc4ccccc4o3)n[nH]c2CN1Cc1ccccc1 | inactive: 6.68% [at 57.5 µM]
12 | COC(=O)c1sccc1S(=O)(=O)N1CCN2C(=O)CN(C)C(=O)C2C1 (stereo not drawn) | inactive: 9.99%
13 | Cc1cnc(CC2CCN(S(=O)(=O)c3ccccc3)CC2)n1Cc1ccc(F)cc1 | inactive: 0.311%
14 | O=C(CCCc1ccccc1)Nc1ccc(OC2CCNCC2)nc1 | inactive: 24%
15 | O=C(CCC[C@@H]1[C@H]2CCCN3CCC[C@@H](CN1Cc1cccnc1)[C@@H]23)N1CCN(C2CCCC2)CC1 | inactive: 1.69%
16 | CCOCCn1c(=O)n(C(CC)C(=O)NC(C)(C)C)c2cc(C(=O)O)cnc21 (stereo not drawn) | inactive: -0.909%
17 | Cc1nc(CNC(=O)[C@H]2CCC[C@@H](O)C2)nc2c1CCCC2 | inactive: 0.0681%
18 | CCc1csc(CNc2cc(C3CC(O)C3)nc(N)n2)n1 (stereo not drawn) | inactive: -11.2%
19 | CCNC(=O)N[C@H]1CC[C@]2(C)CCC([C@H](C)C(=O)N(C)CCC#N)[C@H](O)[C@H]2[C@@H]1C (stereo partly drawn) | inactive: -1.35% [at 57.5 µM]
20 | CC1=NS(=O)(=O)N(C)C=C1C(=O)OCc1nc(-c2cccc(C)c2)no1 | inactive: 12.3%
21 | CC1(C(=O)NCc2cccnc2)CCCc2cnc(Nc3ccccc3F)nc21 (stereo not drawn) | inactive: 8.04% [at 57.5 µM]
22 | CC(C)(N)C(=O)N1CCN(c2nc(-c3ccccc3)nc3c2CCC3)CC1 | inactive: 21.4%
23 | CCC1(C2CCN(C(=O)CCCc3ccccc3)CC2)NC(=O)N(CCc2scnc2C)C1=O (stereo not drawn) | inactive: -17.2%
24 | O=C(N[C@@H]1COCC[C@@H]1OCC1CC1)c1cc(-n2cccn2)ccc1Cl | inactive: -0.841%
25 | Cc1nc(-c2cccnc2)ncc1C(=O)N1CCC2(CC1)CC(=O)N(C)C2 | inactive: 2.42%

Row | SMILES | activity % (negative = inhibition)
26 | O=C(c1ccccc1)N1CC2(CCCN2CC2CC2)Cc2ccccc21 (stereo not drawn) | inactive: 2.85%
27 | C#CCNC(=O)C[C@@H]1C[C@@H](C(C)C)[C@H](CNS(C)(=O)=O)C=C1C | inactive: 6.29% [at 57.5 µM]
28 | C[C@]1(CO)[C@H]2Cc3sc(-c4ccccc4)nc3[C@@H](CC(=O)N3CCOCC3)[C@]2(C)CC[C@H]1O | inactive: 10.5%
29 | Cc1ccc(C)c(C(=O)N2CC(c3nnc(-c4ccncc4)o3)C3(CCOCC3)C2)c1 (stereo not drawn) | inactive: 9.26%
30 | O=C(NCc1nnc2n1C(C(=O)NCc1cccnc1)CC2)c1cccnc1 (stereo not drawn) | inactive: -0.515%
31 | Nc1nc(C2CC(N)C2)cc(N2CCCN(Cc3cccs3)CC2)n1 (stereo not drawn) | inactive: 0.493%
32 | CCC1(C(=O)Nc2cc(OC)ccc2OC)CCCCC(=O)N1 (stereo not drawn) | inactive: 23.1%
33 | COCC1CN(C)CC12CCN(S(=O)(=O)c1cccs1)CC2 (stereo not drawn) | inactive: 4.6%
34 | CCn1cc(CN2CC(Oc3ccc(-c4noc(-c5cccnc5)n4)cc3)C2)cn1 | inactive: 16.5%
35 | c1ccc(CCCc2noc(-c3ccc(N4CCOCC4)nc3)n2)cc1 | inactive: 23.1%
36 | Cc1nc(N)ncc1C(=O)N(C)Cc1cn[nH]c1-c1ccccc1 | inactive: -0.485%
37 | Cc1ccc(F)c(OC2(C(=O)O)CCN(S(=O)(=O)c3cnn(C)c3)CC2)c1 | inactive: 1.98%
38 | CN1CC(=O)N(C2CCCCC2)Cc2c(NCCO)ncnc21 | inactive: 28.3% [at 57.5 µM]
39 | NC1CCCCN(Cc2ccc(Cl)c(F)c2)C1 (stereo not drawn) | inactive: -2.71%
40 | COc1ccc2nc([C@H]3CCN(C4CCCCC4)C3)[nH]c2c1 | inactive: 4.41% [at 57.5 µM]
41 | O=C(c1cc(F)ccc1F)N1CCCC(Cc2noc(-c3ccccc3)n2)C1 (stereo not drawn) | inactive: -10.4%
42 | COc1ccc(Nc2cnc3ccc(-c4ccc(F)cc4)nn23)cn1 | inactive: -0.267% [at 57.5 µM]
43 | CC(C)[C@@H]1CN(C(=O)CCCn2cncn2)C[C@H]1NS(=O)(=O)N(C)C | inactive: 15.5%
44 | Cc1noc(C)c1Cc1ccc(C(=O)N2CC(N(C)Cc3cccnc3)C2)o1 | inactive: -1.37%
45 | O=C1NC2(CCN(C(=O)c3cccnc3)C2)Oc2ccccc21 (stereo not drawn) | inactive: 3.52% [at 57.5 µM]
46 | O=C(NCCCc1ccccc1)C1CCCCN1Cc1ccc(-c2ccsc2)cc1 (stereo not drawn) | inactive: 13.5%
47 | COc1cc(OC)cc(-c2onc(C)c2C(=O)NCc2ccccc2C)c1 | inactive: 0.744%
48 | O=C(NC1CCCC1)c1cc(-c2cccc(C(F)(F)F)c2)c2cccn2n1 | inactive: 12.7%
49 | CN(C)C(=O)c1ccc(OC2CCN(C(=O)c3ccc(C(F)(F)F)cc3)CC2)nc1 | inactive: 0.0207%
50 | Cc1cc(CNC(=O)c2cc(C(C)C)n3ncnc3n2)c2[nH]c(C)c(C)c2c1 | inactive: 52.4%

Row | SMILES | activity % (negative = inhibition)
51 | CS(=O)(=O)N(C1CCOCC1)C1CN(C(=O)NCc2ccccc2)C1 | inactive: -1.83%
52 | CNC(=O)c1cc(C)nc2onc(C3CCN(C(=O)NC4CCCC4)C3)c12 (stereo not drawn) | inactive: 3.31%
53 | N[C@H]1CCCN(C(=O)c2cnc(C34CC5CC(CC(C5)C3)C4)[nH]c2=O)C1 | inactive: 12%
54 | O=C(NCc1ccccc1)N1CCCC(Cn2cnc3cccnc32)C1 (stereo not drawn) | inactive: 3.87%
55 | Cc1ccsc1C(=O)C1CCCN(Cc2ccc(OC(C)C)c(CO)c2)C1 (stereo not drawn) | inactive: 3.84%
56 | O=C(Nc1ccccc1)N1CCC(N2CC3CCCN3C2=O)CC1 (stereo not drawn) | inactive: 6.28% [at 57.5 µM]
57 | O=C(CCc1conc1-c1ccc(F)cc1)NC1CCCCC1 | inactive: -2.73%
58 | COc1ccc2c(=O)n(CC(=O)N(C)Cc3cc(C)no3)ccc2c1OC | inactive: 19.3%
59 | Cc1ccc([S+](=O)([O-])N2CCCCC23Cc2ccccc2NC3=O)cc1 (stereo not drawn) | inactive: 0.244%
60 | N#Cc1cccnc1-c1cccc(C(=O)NCCNC(=O)c2ccccc2)c1 | inactive: 1.91%
61 | COCCN(CCOC)CC[C@@H]1CC[C@H](O)[C@@H](C(=O)NC2CCCCC2)O1 | inactive: 11% [at 57.5 µM]
62 | CC(=O)N1CC(CO)C2(CCN(C(=O)c3nccc4ccccc34)CC2)C1 (stereo not drawn) | inactive: -2.13%
63 | Cc1cc(C)n(CCCN(C)C(=O)C2C3C(=O)N(CCC(C)C)C[C@@]34C=C[C@@H]2O4)n1 (stereo partly drawn) | inactive: 2.52%
64 | CN(C)C[C@@H]1CN(c2ccncn2)C[C@H]1NC(=O)c1nccc2ccccc12 | inactive: -0.378%
65 | COCC(=O)Nc1ccc(-c2noc([C@@H]3CCCN3Cc3ncc[nH]3)n2)cn1 | inactive: 13.3% [at 57.5 µM]
66 | Fc1ccc(CN2CCn3c(nnc3-c3ccncc3)C2)cc1 | inactive: -0.0094%
67 | N#Cc1ccc(O[C@@H]2CCOC[C@H]2NC(=O)CN2CCOC2=O)cc1 | inactive: 10.4%
68 | CC(C)CCN1CC[C@@H]2OCC(=O)N(Cc3ccccc3)[C@H]2CC1 | inactive: 4.66% [at 57.5 µM]
69 | c1ccc2c(c1)CCN2c1nccnc1OC1CCNC1 (stereo not drawn) | inactive: 29.6%
70 | O=C(Nc1ccc(F)c(Cl)c1)C1=NO[C@@H]2CN(CCc3ccccc3)C[C@H]12 | inactive: 3.66% [at 57.5 µM]
71 | O=C(N[C@H]1C[C@H]2C(=O)NC[C@@H](CCC(=O)N3CCN(c4ccccn4)CC3)N2C1)c1cccs1 | inactive: -7.77%
72 | COCCN1Cc2[nH]nc(-c3ccsc3)c2CC1=O | inactive: 1.22% [at 77.1 µM]
73 | CC(=O)Nc1ccc(C2(C(=O)NCc3cccs3)CCCCC2)cc1 | inactive: 0.641%

6 of the compounds above, as a markdown table.

| Row | SMILES | activity % (negative = inhibition) |
| --- | --- | --- |
| 60 | N#Cc1cccnc1-c1cccc(C(=O)NCCNC(=O)c2ccccc2)c1 | inactive: 1.91% |
| 61 | COCCN(CCOC)CC[C@@H]1CC[C@H](O)[C@@H](C(=O)NC2CCCCC2)O1 | inactive: 11% [at 57.5 µM] |
| 62 | CC(=O)N1CC(CO)C2(CCN(C(=O)c3nccc4ccccc34)CC2)C1 (stereo not drawn) | inactive: -2.13% |
| 63 | Cc1cc(C)n(CCCN(C)C(=O)C2C3C(=O)N(CCC(C)C)C[C@@]34C=C[C@@H]2O4)n1 (stereo partly drawn) | inactive: 2.52% |
| 64 | CN(C)C[C@@H]1CN(c2ccncn2)C[C@H]1NC(=O)c1nccc2ccccc12 | inactive: -0.378% |
| 65 | COCC(=O)Nc1ccc(-c2noc([C@@H]3CCCN3Cc3ncc[nH]3)n2)cn1 | inactive: 13.3% [at 57.5 µM] |
